Values quoted from earlier work, collected in publication PMC6052858 (Die Pharmazie, 2009).
Read-outs that look alike come from different tables or passages of the source.

Conditions: cited from earlier work; for Cmax: ref Dresser et al. (2002)
[1] = administered along with GFJ, ref Dresser et al. 2002

CC(C)(C(=O)O)c1ccc(C(O)CCCN2CCC(C(O)(c3ccccc3)c3ccccc3)CC2)cc1 (stereo not shown) [fexofenadine]
AUC with GFJ, % of control (decreased to) [1]: 30%
Cmax with GFJ, % of control (decreased to) [1]: 40%
Cmax (with GFJ): 110 µg/mL
Cmax (without GFJ): 288 µg/mL
